Reference: publication PMC7229175
These are yes or no findings as the source states them, for the method shown. In cells and extracts the contact can be indirect. A result given as binding can be weak or reduced; the word gives no strength.

Protein sequences, listed by entry. Tags and fused reporters are not part of them. Lines headed by an entry give the natural chain unless they say otherwise; changes in a name come on top.
UniProt Q9UJY5: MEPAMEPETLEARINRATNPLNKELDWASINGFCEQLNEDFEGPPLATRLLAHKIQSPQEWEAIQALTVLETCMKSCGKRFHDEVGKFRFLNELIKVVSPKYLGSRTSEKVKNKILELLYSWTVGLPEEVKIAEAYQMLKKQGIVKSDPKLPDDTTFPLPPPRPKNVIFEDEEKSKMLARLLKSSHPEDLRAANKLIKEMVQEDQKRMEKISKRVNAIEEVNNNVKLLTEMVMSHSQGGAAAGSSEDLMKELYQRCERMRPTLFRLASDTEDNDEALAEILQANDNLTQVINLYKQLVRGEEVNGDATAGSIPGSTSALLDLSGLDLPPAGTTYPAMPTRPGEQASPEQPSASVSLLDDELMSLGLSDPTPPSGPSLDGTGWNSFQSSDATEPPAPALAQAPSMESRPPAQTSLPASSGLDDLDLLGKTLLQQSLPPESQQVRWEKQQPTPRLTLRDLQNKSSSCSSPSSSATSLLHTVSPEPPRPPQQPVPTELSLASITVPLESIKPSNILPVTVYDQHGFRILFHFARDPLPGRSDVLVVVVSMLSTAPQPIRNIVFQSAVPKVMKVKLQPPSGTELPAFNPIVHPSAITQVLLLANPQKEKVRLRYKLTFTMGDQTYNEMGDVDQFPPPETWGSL
UniProt P61205: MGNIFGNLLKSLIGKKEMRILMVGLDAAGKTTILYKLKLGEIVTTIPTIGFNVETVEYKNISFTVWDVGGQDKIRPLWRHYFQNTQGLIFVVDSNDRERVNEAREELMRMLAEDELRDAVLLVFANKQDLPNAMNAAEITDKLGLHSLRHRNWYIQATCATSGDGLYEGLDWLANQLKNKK

Target: ARF-binding domain of GGA1 protein fused with GST (GST-GGA1) (UniProt Q9UJY5)
Experiment: pull-down; lysates of WT and BIG1-/- BMDMs treated with LPS (100 ng/ml, 30 min); GTP-bound ARF3 pulled down by GST-GGA1 (ARF-binding domain), western blot; only the target purified

Substance: endogenous ARF3 (from UniProt P61205 1-181)
- binding: binds
